Measured values from PMC2077835 (Drug metabolism and disposition: the biological fate of …, 2006).

Legend:
Type in all cases: biochemical
[1] = target: T1, recombinant CYP4F2 (Homo sapiens, UniProt P78329); test: Chemical inhibition of M1 formation by recombinant CYP4F2; conditions: inhibitor >1 μM; 10 pmol/ml P450, 3 μM DB289
T1 sequence (P78329 5-520): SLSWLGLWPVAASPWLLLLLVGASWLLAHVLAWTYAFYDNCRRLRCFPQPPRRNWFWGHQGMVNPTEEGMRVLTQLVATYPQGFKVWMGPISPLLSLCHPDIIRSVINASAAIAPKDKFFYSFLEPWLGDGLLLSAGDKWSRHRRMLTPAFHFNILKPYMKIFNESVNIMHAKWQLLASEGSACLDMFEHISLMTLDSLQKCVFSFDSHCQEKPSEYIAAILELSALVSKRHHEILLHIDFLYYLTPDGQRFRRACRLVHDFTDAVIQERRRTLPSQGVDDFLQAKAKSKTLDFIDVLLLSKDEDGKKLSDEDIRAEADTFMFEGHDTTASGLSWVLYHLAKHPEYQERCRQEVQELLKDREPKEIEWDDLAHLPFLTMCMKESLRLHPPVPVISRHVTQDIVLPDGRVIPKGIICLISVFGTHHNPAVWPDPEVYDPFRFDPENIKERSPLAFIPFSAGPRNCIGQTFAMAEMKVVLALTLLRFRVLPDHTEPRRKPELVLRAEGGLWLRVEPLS

[2] = target: T2, recombinant CYP4F3B (Homo sapiens, UniProt Q08477); test: Chemical inhibition of M1 formation by recombinant CYP4F3B; conditions: inhibitor >1 μM; 10 pmol/ml P450, 3 μM DB289
T2 sequence (Q08477 1-520 isoform Q08477-2): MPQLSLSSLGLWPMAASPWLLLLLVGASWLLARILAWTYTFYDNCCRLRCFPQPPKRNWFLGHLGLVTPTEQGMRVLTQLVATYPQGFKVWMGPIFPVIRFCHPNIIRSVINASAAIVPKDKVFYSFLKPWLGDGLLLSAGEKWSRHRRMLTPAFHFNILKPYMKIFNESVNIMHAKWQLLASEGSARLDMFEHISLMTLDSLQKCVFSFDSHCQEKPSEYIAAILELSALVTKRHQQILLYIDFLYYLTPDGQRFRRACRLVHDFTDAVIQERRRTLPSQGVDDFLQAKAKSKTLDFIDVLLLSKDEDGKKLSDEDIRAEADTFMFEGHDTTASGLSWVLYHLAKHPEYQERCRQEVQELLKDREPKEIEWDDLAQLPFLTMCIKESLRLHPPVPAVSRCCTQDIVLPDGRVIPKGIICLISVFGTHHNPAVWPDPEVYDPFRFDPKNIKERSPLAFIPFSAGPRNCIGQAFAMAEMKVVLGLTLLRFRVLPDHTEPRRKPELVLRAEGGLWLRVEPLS

[3] = test system: M1 formation by human liver microsomes; test: Chemical inhibition of M1 formation by HLMs; conditions: 0.2 mg/ml HLM, 3 μM DB289
[4] = target: T3, CYP2J2 (Homo sapiens, UniProt P51589); test: Chemical inhibition of M1 formation by recombinant CYP2J2; conditions: 1 μM inhibitor; 10 pmol/ml P450, 3 μM DB289
T3 sequence (P51589 1-502): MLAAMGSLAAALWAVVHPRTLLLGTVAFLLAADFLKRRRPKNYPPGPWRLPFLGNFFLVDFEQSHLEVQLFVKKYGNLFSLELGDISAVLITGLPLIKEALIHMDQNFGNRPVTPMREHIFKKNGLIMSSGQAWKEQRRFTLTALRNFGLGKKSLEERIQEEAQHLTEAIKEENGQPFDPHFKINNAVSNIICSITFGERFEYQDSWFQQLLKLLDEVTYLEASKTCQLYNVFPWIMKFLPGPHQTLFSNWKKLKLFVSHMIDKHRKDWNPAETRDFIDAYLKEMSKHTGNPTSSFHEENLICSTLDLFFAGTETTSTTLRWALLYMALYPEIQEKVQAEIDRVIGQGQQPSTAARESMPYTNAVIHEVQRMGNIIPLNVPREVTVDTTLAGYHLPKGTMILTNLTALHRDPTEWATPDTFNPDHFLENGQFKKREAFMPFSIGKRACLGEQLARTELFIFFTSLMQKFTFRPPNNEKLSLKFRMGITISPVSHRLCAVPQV

## CC(C)(C)c1ccc(C(=O)CCCN2CCC(OC(c3ccccc3)c3ccccc3)CC2)cc1 [ebastine]
[1]
  inhibition of M1 formation: partially inhibiting
[2]
  inhibition of M1 formation: partially inhibiting
[3]; 1 μM inhibitor, Fig. 7A
  inhibition of M1 formation: did not inhibit
[3]; inhibitor up to 10 μM
  inhibition of M1 formation: marginally inhibited
[4]
  inhibition of M1 formation, selectivity among CYP2J2, CYP4F2, CYP4F3B: selective inhibitor of CYP2J2
